The other results are listed elsewhere or left out.
Biological target: OsWRKY34 (Oryza sativa, UniProt Q0JBA9 1-250)
Assay: protein-binding microarray (RPBM); PBS, 2% BSA, 51.3 ng/ul salmon testes DNA, 50 uM zinc acetate, 200 nM TF, 25 C, 1 h; high values mean tight binding
Settings: protein: recombinant; tags: N-terminal polyhistidine and DsRed monomer fusion (pET32a); label: CyDye5-dUTP incorporated in the synthesized complementary strand; 3' TTTTT single-stranded linker to array surface; dsDNA, one strand shown
Method in brief: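 Per-feature fluorescence intensity (arbitrary units), read on an Axon 4000B scanner, is the binding signal. Transcription factors carrying an N-terminal polyhistidine tag and DsRed fusion were expressed in E. coli BL21-CodonPlus and purified on Ni–NTA. A custom Agilent array, made double-stranded by primer extension with Cy5-dUTP and blocked with 2% BSA, was incubated with 200 nM protein in PBS, 2% BSA, salmon testes DNA and 50 µM zinc acetate at 25 °C for 1 h and then washed.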

Amino acid sequences for entries named in this document (tags omitted).
UniProt Q0JBA9, entry or part of it: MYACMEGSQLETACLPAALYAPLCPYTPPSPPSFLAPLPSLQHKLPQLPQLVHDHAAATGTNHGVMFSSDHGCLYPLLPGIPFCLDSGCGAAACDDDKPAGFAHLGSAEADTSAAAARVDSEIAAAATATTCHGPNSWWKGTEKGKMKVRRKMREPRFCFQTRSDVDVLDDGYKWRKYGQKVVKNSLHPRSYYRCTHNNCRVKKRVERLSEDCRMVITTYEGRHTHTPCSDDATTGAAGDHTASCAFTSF

| Sequence | binding signal |
| --- | --- |
| CTTCTTCCGTGGTTTACTGCTTCCTCTTGTGCTACTTCTTCGGAGTCACCTAGTGCAG | 11400 fluorescence intensity (a.u.) |
| TTCTGTGTGATTATATGAAGCTAGGGTCTGACCGCCTCACCGGAGTCACCTAGTGCAG | 11300 fluorescence intensity (a.u.) |
| GCGCCCGTGCGCGCATCCTCTCTCTCTCTCACACACACACCGGAGTCACCTAGTGCAG | 8600 fluorescence intensity (a.u.) |
| TTGGCTATTTGGCAGTTTCTCCACGAGCACCTCCAATCTCCGGAGTCACCTAGTGCAG | 8470 fluorescence intensity (a.u.) |
| CCCACGTTTGCCTTCTACTGTACGTCACTCCGTACTCCTCCGGAGTCACCTAGTGCAG | 8310 fluorescence intensity (a.u.) |
| ATATCACTCCACAACACATGCAAGTTCAAATTTGACTTACCGGAGTCACCTAGTGCAG | 11200 fluorescence intensity (a.u.) |
| TCGTGTTTAGCTAATTAGTGGTTTGTGTCCACGTTAGTTTCGGAGTCACCTAGTGCAG | 11300 fluorescence intensity (a.u.) |
| ATTGATGGGGTAAATGGGCTGGACTTCGAGCGCAAAAAAACGGAGTCACCTAGTGCAG | 10000 fluorescence intensity (a.u.) |
| GCAGCGCATCCGCGCCTCGCCTTGCTTGATTTGCCTCGCCCGGAGTCACCTAGTGCAG | 10700 fluorescence intensity (a.u.) |
| GGTTTCGATAATATTCGTTTTCGTTTTCATTTCCGGGGTTCGGAGTCACCTAGTGCAG | 9190 fluorescence intensity (a.u.) |
| ACGAAGGGAGTATTATTCTACGTTGCTATATTTGTTTTCTCGGAGTCACCTAGTGCAG | 9610 fluorescence intensity (a.u.) |
| AATCCTTCAATTGTTTCTATGTTTTTCTATTACCAAGTTTCGGAGTCACCTAGTGCAG | 10200 fluorescence intensity (a.u.) |
| ATCTAACCCGGCTTAAACTGTAATAAACCATGCTCCTTATCGGAGTCACCTAGTGCAG | 8850 fluorescence intensity (a.u.) |
| GTGTGTGTTTTTGCAAAAGTTTTCTATAGAAAAGTTACATCGGAGTCACCTAGTGCAG | 8210 fluorescence intensity (a.u.) |
| CTTTTTTCCATCTCTCCACTGAGACCGGTGACACAAATCTCGGAGTCACCTAGTGCAG | 8100 fluorescence intensity (a.u.) |
| GATATTTCTCTTTATCATGGTCACCGTTCATCATGAGCAACGGAGTCACCTAGTGCAG | 8970 fluorescence intensity (a.u.) |
| GCTTATAGAGGTAGGGTATGTGTGTATGTGTTTATAGACGCGGAGTCACCTAGTGCAG | 8610 fluorescence intensity (a.u.) |
| TGTCCAAATCCACCTACGCGCCCCGCCCTCGAACGCGCACCGGAGTCACCTAGTGCAG | 9280 fluorescence intensity (a.u.) |
| TATCCAGCACCTTGTAAGTTTTCAATCCCAAATTATATGTCGGAGTCACCTAGTGCAG | 9350 fluorescence intensity (a.u.) |
| CTCGGAATATGGGTGGTGATATATCAGGATGGTCGGCAAGCGGAGTCACCTAGTGCAG | 8970 fluorescence intensity (a.u.) |
| TCCAGTTGGGCGGTTGAAGGTTTTTGTTTATGACTTGCCACGGAGTCACCTAGTGCAG | 11200 fluorescence intensity (a.u.) |
| GTACAAGAGTCCATAATATGCTCCATGGAAACGCTGAAAACGGAGTCACCTAGTGCAG | 8480 fluorescence intensity (a.u.) |
| AAATTCACTCTCCGGCCCATTTCAACTGCATTTTCGGCCTCGGAGTCACCTAGTGCAG | 8440 fluorescence intensity (a.u.) |

Part of the list above, as labelled records:
CCCACGTTTGCCTTCTACTGTACGTCACTCCGTACTCCTCCGGAGTCACCTAGTGCAG
  binding signal = 8310 fluorescence intensity (a.u.)
CTTTTTTCCATCTCTCCACTGAGACCGGTGACACAAATCTCGGAGTCACCTAGTGCAG
  binding signal = 8100 fluorescence intensity (a.u.)
